Source: PMC9852244

Molecular target: T1, FLAG-tagged mouse RIPK1 (doxycycline-inducible) (mouse) (UniProt Q60855)
T1 sequence: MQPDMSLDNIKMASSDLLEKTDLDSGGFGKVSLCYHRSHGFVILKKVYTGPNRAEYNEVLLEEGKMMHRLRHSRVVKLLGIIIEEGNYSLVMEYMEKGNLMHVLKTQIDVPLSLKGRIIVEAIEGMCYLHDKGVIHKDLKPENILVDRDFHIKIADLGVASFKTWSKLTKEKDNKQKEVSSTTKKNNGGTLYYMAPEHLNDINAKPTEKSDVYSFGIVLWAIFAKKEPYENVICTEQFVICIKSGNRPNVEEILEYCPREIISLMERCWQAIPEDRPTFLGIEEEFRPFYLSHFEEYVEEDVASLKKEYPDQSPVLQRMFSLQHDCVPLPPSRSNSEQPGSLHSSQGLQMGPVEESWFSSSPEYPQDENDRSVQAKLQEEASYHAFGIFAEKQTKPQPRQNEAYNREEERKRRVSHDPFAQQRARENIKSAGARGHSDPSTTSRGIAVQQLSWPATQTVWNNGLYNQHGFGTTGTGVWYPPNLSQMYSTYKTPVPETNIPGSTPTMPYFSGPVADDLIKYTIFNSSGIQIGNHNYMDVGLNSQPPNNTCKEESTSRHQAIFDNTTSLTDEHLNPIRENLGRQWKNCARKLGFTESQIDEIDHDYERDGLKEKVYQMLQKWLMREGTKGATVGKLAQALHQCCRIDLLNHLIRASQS
Test: affinity purification with mass spectrometry; SILAC; FLAG-RIPK1 complexes enriched on ANTI-FLAG M2 gel (3 h, 4 °C) from two clonal Dox-induced MEF lines, DMSO control (light) versus TNF + SM + zVAD 2 h (medium); beads pooled, FLAG peptide elution, LC-MS/MS

B1: RIOK1 (protein, UniProt Q922Q2 1-567)
chain: MDCSLDRMASVVPGQFDDADSSDSENKELQPIHAEDGGVLLKSLQNAAAEVKGDAETDEEDDYDDDDDWYLDDATGKLTKGCTWNGGSNYQANRQTSNYNSAKMSTPIDKSLRKFENKINLNKLNVTDSVTNKVTVKLRQKEAESYRIKDKADRATVEQVLDPRTRMILFKLLHKDHISEIHGCISTGKEANVYYASTPSGESRAIKIYKTSILMFKDRDKYVTGEFRFRRGYCKGNPRKMVRTWAEKEMRNLCRLKTANIPCPEPIRLRSHVLLMGFIGKDDMPAPLLKNVQLSESKARELYLQVIQYMRKMYQDARLVHADLSEFNMLYHGGDVYIIDVSQSVEHDHPHALEFLRKDCTNVNDFFSKHAVAVMTVRELFDFVTDPSITADNMDAYLEKAMEIASQRTKEEKTSQDHVDEEVFKQAYIPRTLNEVKNYERDVDIMMRLKEEDMALNTQQDNILYQTVMGLKKDLSGVQKVPALLESEVKEETCFGSDDAGGSECSDTVSEEQEDQAGCRNHIADPDIDKKERKKMVKEAQREKRKNKIPKHVKKRKEKTAKAKKGK
  binding: binds

Results are given in words; binding and its absence hold for the method and conditions named. In cells and extracts the contact can be indirect. A yes stands for co-enrichment or nearness to the bait. Other partners may have been found. Sequences can lack the tags named with a protein.
